The text below walks through data of publication PMC12251259.

Sequences of proteins named here, by UniProt entry; tags and fusion partners are left off.
UniProt P34160: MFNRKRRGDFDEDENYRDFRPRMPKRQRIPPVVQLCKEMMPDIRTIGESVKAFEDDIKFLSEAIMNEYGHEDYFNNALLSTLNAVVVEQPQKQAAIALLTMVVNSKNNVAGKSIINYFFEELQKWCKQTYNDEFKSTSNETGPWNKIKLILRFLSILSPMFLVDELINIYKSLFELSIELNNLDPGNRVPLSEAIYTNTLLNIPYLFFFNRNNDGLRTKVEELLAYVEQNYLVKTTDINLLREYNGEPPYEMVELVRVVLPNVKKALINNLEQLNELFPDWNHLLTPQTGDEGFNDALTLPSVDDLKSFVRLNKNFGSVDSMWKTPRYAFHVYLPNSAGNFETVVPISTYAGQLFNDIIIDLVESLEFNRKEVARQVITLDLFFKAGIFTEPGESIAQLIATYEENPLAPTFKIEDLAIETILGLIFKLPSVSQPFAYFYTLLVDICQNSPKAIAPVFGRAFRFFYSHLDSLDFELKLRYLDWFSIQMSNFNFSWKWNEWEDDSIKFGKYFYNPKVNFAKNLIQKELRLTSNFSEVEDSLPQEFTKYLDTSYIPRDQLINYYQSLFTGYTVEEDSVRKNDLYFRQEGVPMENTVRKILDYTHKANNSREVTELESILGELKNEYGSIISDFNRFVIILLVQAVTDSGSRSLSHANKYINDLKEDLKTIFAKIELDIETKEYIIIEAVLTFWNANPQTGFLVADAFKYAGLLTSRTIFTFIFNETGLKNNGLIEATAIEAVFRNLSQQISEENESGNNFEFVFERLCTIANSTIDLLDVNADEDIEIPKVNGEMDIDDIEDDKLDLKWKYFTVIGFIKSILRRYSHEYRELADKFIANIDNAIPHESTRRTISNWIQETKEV

These are yes or no findings as the source states them, for the method shown. Binding seen in cells or lysates may run through a third protein. Here binding means that the protein was enriched with, or labelled near, the bait; the list need not be complete. No binding means not detected with the bait.

The target in this test is Cbp80-proteinA (S. cerevisiae) (UniProt P34160). Description: affinity purification with mass spectrometry; Cbp80-proteinA pulled from cryo-ground yeast extract (WT or hpr1Δ cells) on IgG-conjugated magnetic beads, 30 min at 4°C; 20 mM Hepes pH 7.4, 110 mM KOAc, 75 mM NaCl, 0.1% Tween-20, 0.5% Triton X-100, RNasin; conditions that preserve mRNP integrity; label-free quantitation against a no-tag control, four biological replicates.

B1: Dis3 (protein, UniProt Q08162 1-1001)
chain: MSVPAIAPRRKRLADGLSVTQKVFVRSRNGGATKIVREHYLRSDIPCLSRSCTKCPQIVVPDAQNELPKFILSDSPLELSAPIGKHYVVLDTNVVLQAIDLLENPNCFFDVIVPQIVLDEVRNKSYPVYTRLRTLCRDSDDHKRFIVFHNEFSEHTFVERLPNETINDRNDRAIRKTCQWYSEHLKPYDINVVLVTNDRLNREAATKEVESNIITKSLVQYIELLPNADDIRDSIPQMDSFDKDLERDTFSDFTFPEYYSTARVMGGLKNGVLYQGNIQISEYNFLEGSVSLPRFSKPVLIVGQKNLNRAFNGDQVIVELLPQSEWKAPSSIVLDSEHFDVNDNPDIEAGDDDDNNESSSNTTVISDKQRRLLAKDAMIAQRSKKIQPTAKVVYIQRRSWRQYVGQLAPSSVDPQSSSTQNVFVILMDKCLPKVRIRTRRAAELLDKRIVISIDSWPTTHKYPLGHFVRDLGTIESAQAETEALLLEHDVEYRPFSKKVLECLPAEGHDWKAPTKLDDPEAVSKDPLLTKRKDLRDKLICSIDPPGCVDIDDALHAKKLPNGNWEVGVHIADVTHFVKPGTALDAEGAARGTSVYLVDKRIDMLPMLLGTDLCSLKPYVDRFAFSVIWELDDSANIVNVNFMKSVIRSREAFSYEQAQLRIDDKTQNDELTMGMRALLKLSVKLKQKRLEAGALNLASPEVKVHMDSETSDPNEVEIKKLLATNSLVEEFMLLANISVARKIYDAFPQTAMLRRHAAPPSTNFEILNEMLNTRKNMSISLESSKALADSLDRCVDPEDPYFNTLVRIMSTRCMMAAQYFYSGAYSYPDFRHYGLAVDIYTHFTSPIRRYCDVVAHRQLAGAIGYEPLSLTHRDKNKMDMICRNINRKHRNAQFAGRASIEYYVGQVMRNNESTETGYVIKVFNNGIVVLVPKFGVEGLIRLDNLTEDPNSAAFDEVEYKLTFVPTNSDKPRDVYVFDKVEVQVRSVMDPITSKRKAELLLK
Regarding B1, the binding entry is “no binding”.
